We go through five molecules from patent publication US20140193432A1.

Amino acid sequences for entries named in this document (tags omitted). A change or cut given only in a name is not applied to a line headed by its entry.
UniProt P80370: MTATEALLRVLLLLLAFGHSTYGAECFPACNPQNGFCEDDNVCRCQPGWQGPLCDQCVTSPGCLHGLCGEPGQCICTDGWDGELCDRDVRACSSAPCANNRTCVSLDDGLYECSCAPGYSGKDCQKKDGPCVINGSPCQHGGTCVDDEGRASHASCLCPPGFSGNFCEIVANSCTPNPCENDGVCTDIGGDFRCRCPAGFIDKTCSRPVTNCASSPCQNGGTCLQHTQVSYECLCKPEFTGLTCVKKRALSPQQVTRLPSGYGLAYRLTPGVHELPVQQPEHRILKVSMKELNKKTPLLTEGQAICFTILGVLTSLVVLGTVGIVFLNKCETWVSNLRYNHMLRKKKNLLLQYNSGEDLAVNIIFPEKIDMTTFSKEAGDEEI

Results are given in words; binding and its absence hold for the method and conditions named. Some entries that bind do so weakly or less than the wild type.

For assay [1], the target named is recombinant protein of the hDlk-1 extracellular region (hDlk-1-His) (human) (UniProt P80370). The assay can be described thus: summary of the three ELISA formats.
The target is the same in assay [2]. Nature of the assay: ELISA third format: hDlk-1-His coated at 0.05 µg/ml, purified antibodies.
For assay [3] the target is unchanged. Nature of the assay: ELISA third format: hDlk-1-His coated at 0.05 µg/ml, antibody titrated from 5 µg/ml.
Assay [4] has the same target. The assay can be described thus: ELISA first format: antibody coated at 1 µg/ml, hDlk-1-His titrated from 1 µg/ml, anti-His-HRP detection (monovalent).
Assay [5] has the same target. The assay can be described thus: ELISA third format: hDlk-1-His coated at 0.05 µg/ml, HEK293 culture supernatants.
Assay [6] shares this target. The assay can be described thus: antigen-immobilized ELISA, hDlk-1-His coated at 3 µg/ml, antibody at 0.001 to 1 µg/ml.
The target is the same in assay [7]. Nature of the assay: antigen-immobilized ELISA, hDlk-1-His coated at 3 µg/ml, antibody at 0.1 µg/ml after incubation in cynomolgus monkey plasma at 37° C.

B1: humanized BA-1-3D IgG1/κ antibody (HuBA-1-3D-1) (antibody, V domains shown)
VH: QVQLVQSGAEVKKPGASVKVSCKASGYTFTDYAMHWVRQAPGQGLEWIGVISTYYGNTNYNQKFKGKATMTVDTSTSTAYMELRSLRSDDTAVYYCARGGLREYYYAMDYWGQGTMVTVSS
VL: DIVMTQSPDSLAVSLGERATINCKSSQSLLNSSNQKNYLAWYQQKPGQPPKLLVYFASTRESGVPDRFSGSGSGTDFTLTISSLQAEDVAVYYCQQHYSTPPTFGQGTKLEIKR
For the molecule B1, the binding result in assay [1], in assay [2], in assay [3] and in assay [4] was “binds” in each case.

B2: HuBA-1-3D-1-T73K (antibody, human IgG1, kappa, V domains shown)
VH: QVQLVQSGAEVKKPGASVKVSCKASGYTFTDYAMHWVRQAPGQGLEWIGVISTYYGNTNYNQKFKGKATMTVDKSTSTAYMELRSLRSDDTAVYYCARGGLREYYYAMDYWGQGTMVTVSS
VL: DIVMTQSPDSLAVSLGERATINCKSSQSLLNSSNQKNYLAWYQQKPGQPPKLLVYFASTRESGVPDRFSGSGSGTDFTLTISSLQAEDVAVYYCQQHYSTPPTFGQGTKLEIKR
For the molecule B2, the binding result in assay [2] and in assay [5] was “binds” in each case.

B3: HuBA-1-3D-1-A24G/T73K (antibody, human IgG1, kappa, V domains shown)
VH: QVQLVQSGAEVKKPGASVKVSCKGSGYTFTDYAMHWVRQAPGQGLEWIGVISTYYGNTNYNQKFKGKATMTVDKSTSTAYMELRSLRSDDTAVYYCARGGLREYYYAMDYWGQGTMVTVSS
VL: DIVMTQSPDSLAVSLGERATINCKSSQSLLNSSNQKNYLAWYQQKPGQPPKLLVYFASTRESGVPDRFSGSGSGTDFTLTISSLQAEDVAVYYCQQHYSTPPTFGQGTKLEIKR
For B3, the binding entry in assay [5], in assay [6] and in assay [7] was “binds” each time.

B4: HuBA-1-3D-1-A24G (antibody, human IgG1, V domains shown)
VH: QVQLVQSGAEVKKPGASVKVSCKGSGYTFTDYAMHWVRQAPGQGLEWIGVISTYYGNTNYNQKFKGKATMTVDTSTSTAYMELRSLRSDDTAVYYCARGGLREYYYAMDYWGQGTMVTVSS
VL: DIVMTQSPDSLAVSLGERATINCKSSQSLLNSSNQKNYLAWYQQKPGQPPKLLVYFASTRESGVPDRFSGSGSGTDFTLTISSLQAEDVAVYYCQQHYSTPPTFGQGTKLEIK
Regarding B4, the binding result in assay [5] is reported as “binds”.

B5: humanized BA-1-3D IgG1/κ antibody (HuBA-1-3D-2) (antibody, V domains shown)
VH: QVQLVQSGAEVKKPGASVKVSCKASGYTFTDYAMHWVRQAPGQGLEWIGVISTYYGNTNYNQKFKGRATMTVDTSTSTAYMELRSLRSDDTAVYYCARGGLREYYYAMDYWGQGTMVTVSS
VL: DIVMTQSPDSLAVSLGERATINCKSSQSLLNSSNQKNYLAWYQQKPGQPPKLLVYFASTRESGVPDRFSGSGSGTDFTLTISSLQAEDVAVYYCQQHYSTPPTFGQGTKLEIKR
As to B5, the binding result in assay [1], in assay [5], in assay [3] and in assay [4] was “binds” each time.
